These are yes or no findings as the source states them, for the method shown. Binding seen in cells or lysates may run through a third protein. Some results given as binding are weak or reduced against the parent protein; the word gives no strength.
Biological target: SIRT6 wild type, overexpressed in HEK293 cells as FLAG-SIRT6 or HA-SIRT6 (human) (UniProt Q8N6T7)
Assay: co-IP

Chains of the proteins cited; added tags and fusions are not shown.
UniProt Q8N6T7: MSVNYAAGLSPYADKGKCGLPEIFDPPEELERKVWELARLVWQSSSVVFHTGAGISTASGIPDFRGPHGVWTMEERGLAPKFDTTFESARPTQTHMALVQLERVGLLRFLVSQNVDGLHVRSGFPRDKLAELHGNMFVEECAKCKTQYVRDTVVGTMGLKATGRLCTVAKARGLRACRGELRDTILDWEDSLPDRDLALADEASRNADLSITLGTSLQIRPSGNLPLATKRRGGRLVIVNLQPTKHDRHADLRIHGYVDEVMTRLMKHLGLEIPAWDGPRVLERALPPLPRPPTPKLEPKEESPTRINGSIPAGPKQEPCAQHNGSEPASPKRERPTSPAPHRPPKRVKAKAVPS

- binding: binds
Substance: SIRT6 wild type, overexpressed in HEK293 cells as FLAG-SIRT6 or HA-SIRT6 (from UniProt Q8N6T7 1-355)
